Measurements: publication PMC7465201
No constants are given. Whether binding was seen depends on the method and setting. Binding seen in cells or lysates may run through a third protein. Some binding calls cover weakened binding; strength is not graded here. Tags and fused reporters may be left off the sequences shown.

The chains behind the UniProt entries cited, without tags or fusion partners.
UniProt O95832: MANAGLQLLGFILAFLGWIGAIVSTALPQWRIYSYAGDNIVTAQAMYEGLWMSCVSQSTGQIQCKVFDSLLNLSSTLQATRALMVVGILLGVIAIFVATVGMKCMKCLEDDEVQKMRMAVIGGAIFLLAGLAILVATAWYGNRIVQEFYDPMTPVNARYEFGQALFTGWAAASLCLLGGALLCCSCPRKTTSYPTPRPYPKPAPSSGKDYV

What was measured:
[1] = molecular target: T1, HA-tagged EpCAM (TROP1, CD326) (not stated (human or mouse cDNA cloned)) (UniProt P16422); test: co-IP; HEK 293 cells co-transfected with HA-tagged (EpCAM or TROP2) and FLAG-tagged (claudin) plasmids; lysis in 150 mM NaCl/1% Triton X-100/1 mM EDTA/30 mM NaF/2 mM sodium pyrophosphate/20 mM Tris pH 7.5; precipitated with rat anti-HA (3F10) and Protein G Sepharose at 4 °C; immunoblotted with anti-FLAG or anti-HA
T1 sequence: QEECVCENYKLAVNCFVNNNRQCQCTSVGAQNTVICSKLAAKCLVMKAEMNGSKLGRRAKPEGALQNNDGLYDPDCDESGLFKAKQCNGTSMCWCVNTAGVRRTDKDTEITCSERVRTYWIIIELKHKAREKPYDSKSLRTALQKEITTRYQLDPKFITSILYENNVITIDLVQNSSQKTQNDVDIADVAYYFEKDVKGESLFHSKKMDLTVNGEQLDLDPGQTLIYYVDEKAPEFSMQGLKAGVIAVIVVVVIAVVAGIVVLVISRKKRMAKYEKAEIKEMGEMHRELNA

HA-tagged TROP2 = molecular target: T2, HA-tagged TROP2 (UniProt Q8BGV3); test: as above
T2 sequence: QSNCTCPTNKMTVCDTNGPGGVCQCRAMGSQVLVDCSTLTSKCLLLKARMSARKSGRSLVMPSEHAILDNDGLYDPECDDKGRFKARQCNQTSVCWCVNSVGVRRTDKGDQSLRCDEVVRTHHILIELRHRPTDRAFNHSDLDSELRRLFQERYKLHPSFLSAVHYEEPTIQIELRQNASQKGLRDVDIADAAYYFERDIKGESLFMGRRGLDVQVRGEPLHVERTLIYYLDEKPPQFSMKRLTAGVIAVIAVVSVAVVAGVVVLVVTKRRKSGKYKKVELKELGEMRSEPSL

FLAG-tagged claudin-1 (from UniProt O95832 1-211)
binding [1]: binds
binding (HA-tagged TROP2): binds

B1: FLAG-tagged claudin-7 (protein, UniProt O95471 1-211)
chain: MANSGLQLLGFSMALLGWVGLVACTAIPQWQMSSYAGDNIITAQAMYKGLWMDCVTQSTGMMSCKMYDSVLALSAALQATRALMVVSLVLGFLAMFVATMGMKCTRCGGDDKVKKARIAMGGGIIFIVAGLAALVACSWYGHQIVTDFYNPLIPTNIKYEFGPAIFIGWAGSALVILGGALLSCSCPGNESKAGYRVPRSYPKSNSSKEYV
binding [1]: binds
binding (HA-tagged TROP2): binds
